Reference: article PMC11615746
Results are given in words; binding and its absence hold for the method and conditions named. Binding seen in cells or lysates may run through a third protein. Some entries that bind do so weakly or less than the wild type.

Chains of the proteins cited; added tags and fusions are not shown.
UniProt P18850: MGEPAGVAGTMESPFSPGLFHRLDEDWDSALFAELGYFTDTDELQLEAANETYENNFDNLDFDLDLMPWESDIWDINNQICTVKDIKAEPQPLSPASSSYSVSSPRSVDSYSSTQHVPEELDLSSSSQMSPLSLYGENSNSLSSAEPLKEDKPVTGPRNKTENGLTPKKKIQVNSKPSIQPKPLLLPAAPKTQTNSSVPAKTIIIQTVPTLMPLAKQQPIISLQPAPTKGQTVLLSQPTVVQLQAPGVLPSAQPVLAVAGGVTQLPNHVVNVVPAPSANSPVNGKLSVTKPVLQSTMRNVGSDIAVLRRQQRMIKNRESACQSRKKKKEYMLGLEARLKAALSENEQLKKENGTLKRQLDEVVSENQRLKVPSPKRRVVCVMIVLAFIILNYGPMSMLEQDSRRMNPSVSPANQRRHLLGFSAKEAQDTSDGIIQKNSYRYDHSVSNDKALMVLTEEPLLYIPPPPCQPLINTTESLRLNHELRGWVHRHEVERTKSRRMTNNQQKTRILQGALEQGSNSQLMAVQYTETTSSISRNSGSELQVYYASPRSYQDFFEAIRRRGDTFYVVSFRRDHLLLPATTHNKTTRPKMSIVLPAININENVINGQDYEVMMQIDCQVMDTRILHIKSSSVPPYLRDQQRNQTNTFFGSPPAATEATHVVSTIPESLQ

Biological target: activating transcription factor 6 (ATF6), endogenous (human (endogenous in T24, 5637 and 253J)) (UniProt P18850)
Assay: co-IP; endogenous proteins; anti-ATF6 IP from 253J cells (TPD52 overexpression or empty vector) and T24 cells (shTPD52 or scramble), with 1 µg/mL tunicamycin where indicated; immunoblot

B1: site-2 protease (S2P), endogenous (enzyme, UniProt O43462 1-519)
chain: MIPVSLVVVVVGGWTVVYLTDLVLKSSVYFKHSYEDWLENNGLSISPFHIRWQTAVFNRAFYSWGRRKARMLYQWFNFGMVFGVIAMFSSFFLLGKTLMQTLAQMMADSPSSYSSSSSSSSSSSSSSSSSSSSSSSLHNEQVLQVVVPGINLPVNQLTYFFTAVLISGVVHEIGHGIAAIREQVRFNGFGIFLFIIYPGAFVDLFTTHLQLISPVQQLRIFCAGIWHNFVLALLGILALVLLPVILLPFYYTGVGVLITEVAEDSPAIGPRGLFVGDLVTHLQDCPVTNVQDWNECLDTIAYEPQIGYCISASTLQQLSFPVRAYKRLDGSTECCNNHSLTDVCFSYRNNFNKRLHTCLPARKAVEATQVCRTNKDCKKSSSSSFCIIPSLETHTRLIKVKHPPQIDMLYVGHPLHLHYTVSITSFIPRFNFLSIDLPVVVETFVKYLISLSGALAIVNAVPCFALDGQWILNSFLDATLTSVIGDNDVKDLIGFFILLGGSVLLAANVTLGLWMVTAR
With B1 the binding was “binds”.
